Data as given in PubChem BioAssay AID504774 (Drosophila RNAi Screening Center, 2011)
The screen tested about 23,000 reagents; shown is an unselected part of those with a known target gene and a result. 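Values are quantile-normalised luminescence on an arbitrary scale; higher means more cells surviving MMS.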 Names joined by + are all predicted targets of the reagent. Not all columns of the deposit are shown.

Aim: 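Genes required for cells to withstand methyl methanesulphonate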 (primary screen)
System: Drosophila Kc167 cells
Reagent: long dsRNA against Drosophila genes, about 0.25 µg dsRNA per well
Duration: about 6 days: 3 days knock-down, then 3 days with or without MMS
Conditions: methyl methanesulphonate 0.004% (w/v) for 3 days after knock-down
Measurement: 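ATP-dependent luminescence as a measure of live cells in MMS-exposed wells, quantile normalised within each plate, with replicate values also given as a mean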
Scale: mean viability with MMS and viability with MMS: higher = more surviving cells after MMS

| gene | amplicon | mean viability with MMS | viability with MMS, replicate 1 |
| --- | --- | --- | --- |
| Cyt-c-p | DRSC03310 | 3.46e6 | 3.94e6 |
| CG30046 | DRSC06691 | 3.48e6 | 4.14e6 |
| Atg4a | DRSC00656 | 3.63e6 | 4.22e6 |
| hkb | DRSC12377 | 3.47e6 | 4.02e6 |
| Mondo | DRSC02667 | 3.50e6 | 4.06e6 |
| Mondo | DRSC02668 | 3.41e6 | 3.81e6 |
| Mondo | DRSC22006 | 3.25e6 | 3.85e6 |
| CG3386 | DRSC08566 | 3.50e6 | 3.98e6 |
| Gcn5 | DRSC11248 | 3.20e6 | 3.71e6 |
| cGlr1 | DRSC06270 | 3.51e6 | 4.06e6 |
| elgi | DRSC10242 | 3.65e6 | 4.15e6 |
| 7SLRNA:CR42652 + 7SLRNA:CR32864 | DRSC22968 | 3.57e6 | 4.06e6 |
| CG15251 (retired record) | DRSC17980 | 3.57e6 | 4.06e6 |
| Argk2 | DRSC10483 | 3.39e6 | 3.72e6 |
| Argk2 | DRSC23349 | 3.00e6 | 3.16e6 |
| CG42676 | DRSC08227 | 3.39e6 | 3.81e6 |
| CG42676 | DRSC08392 | 3.36e6 | 3.83e6 |
| sNPF | DRSC02309 | 3.47e6 | 3.87e6 |
| Tektin-A | DRSC01921 | 3.62e6 | 4.11e6 |
| CG30056 | DRSC21752 | 3.33e6 | 3.81e6 |
| aus | DRSC13471 | 3.48e6 | 3.92e6 |
| aus | DRSC13473 | 3.62e6 | 4.07e6 |
| aus | DRSC15157 | 3.30e6 | 3.74e6 |
| gdrd | DRSC10020 | 3.50e6 | 4.08e6 |
| CG15269 | DRSC01942 | 3.46e6 | 3.97e6 |
| ND-ASHI | DRSC18291 | 3.69e6 | 4.36e6 |
| alphaCOP | DRSC08706 | 3.55e6 | 4.18e6 |
| CG14423 | DRSC17920 | 3.41e6 | 3.92e6 |

A portion of the results above, as a working copy:
| gene | amplicon | mean viability with MMS | viability with MMS, replicate 1 |
| --- | --- | --- | --- |
| aus | DRSC13473 | 3.62e6 | 4.07e6 |
| aus | DRSC15157 | 3.30e6 | 3.74e6 |
| gdrd | DRSC10020 | 3.50e6 | 4.08e6 |
| CG15269 | DRSC01942 | 3.46e6 | 3.97e6 |
